Paper PMC11535509
Like-named read-outs stand apart in the source and are kept apart here. Results are given in words; binding and its absence hold for the method and conditions named. Binding seen in cells or lysates may run through a third protein. A yes stands for co-enrichment or nearness to the bait. Other partners may have been found. For part of these data: Where a sequence is shown, tags or fusion partners need not be part of it.

Amino acid sequences for entries named in this document (tags omitted). Residues count along the entry.
UniProt Q8NE86, residues 51-351: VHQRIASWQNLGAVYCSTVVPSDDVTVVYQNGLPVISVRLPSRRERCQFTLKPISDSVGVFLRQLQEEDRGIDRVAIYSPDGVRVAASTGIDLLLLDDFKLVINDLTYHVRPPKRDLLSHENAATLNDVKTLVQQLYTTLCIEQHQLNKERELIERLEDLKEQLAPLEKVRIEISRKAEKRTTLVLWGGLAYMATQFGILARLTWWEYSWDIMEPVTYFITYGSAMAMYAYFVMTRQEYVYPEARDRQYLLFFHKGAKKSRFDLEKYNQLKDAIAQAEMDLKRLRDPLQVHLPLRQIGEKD
UniProt P56378: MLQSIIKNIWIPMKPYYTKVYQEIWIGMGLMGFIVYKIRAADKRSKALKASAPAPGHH
UniProt Q9BPX6, residues 34-476: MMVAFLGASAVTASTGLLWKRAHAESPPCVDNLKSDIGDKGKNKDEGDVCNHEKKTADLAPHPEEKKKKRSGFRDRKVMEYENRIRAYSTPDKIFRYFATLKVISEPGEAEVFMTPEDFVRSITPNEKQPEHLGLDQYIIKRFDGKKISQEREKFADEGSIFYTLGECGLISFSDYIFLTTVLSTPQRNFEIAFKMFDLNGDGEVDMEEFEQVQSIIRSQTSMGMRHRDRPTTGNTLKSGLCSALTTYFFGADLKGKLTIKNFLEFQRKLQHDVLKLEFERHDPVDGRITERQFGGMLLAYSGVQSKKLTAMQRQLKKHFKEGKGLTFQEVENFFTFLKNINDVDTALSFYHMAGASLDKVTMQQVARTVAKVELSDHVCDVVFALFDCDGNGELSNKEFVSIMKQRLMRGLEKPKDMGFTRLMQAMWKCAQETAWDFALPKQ

Key:
Test in all cases: affinity purification with mass spectrometry; tandem affinity purification (streptavidin resin, biotin elution, then Ni-NTA) of the StrepII-HA-His6-tagged bait (MCU, MCUB or EMRE) from 3% digitonin lysates of tetracycline-induced Flp-In T-REx HEK293 cells, resting conditions; label-free LC-MS/MS; parental line as control; preys filtered for mitochondrial proteins
[1] = target: MCU fused at the C-terminus to a StrepII-HA-His6 tag (MCU bait) (UniProt Q8NE86)
[2] = target: T1, MCUB fused at the C-terminus to a StrepII-HA-His6 tag (MCUB bait) (UniProt Q9NWR8)
T1 sequence: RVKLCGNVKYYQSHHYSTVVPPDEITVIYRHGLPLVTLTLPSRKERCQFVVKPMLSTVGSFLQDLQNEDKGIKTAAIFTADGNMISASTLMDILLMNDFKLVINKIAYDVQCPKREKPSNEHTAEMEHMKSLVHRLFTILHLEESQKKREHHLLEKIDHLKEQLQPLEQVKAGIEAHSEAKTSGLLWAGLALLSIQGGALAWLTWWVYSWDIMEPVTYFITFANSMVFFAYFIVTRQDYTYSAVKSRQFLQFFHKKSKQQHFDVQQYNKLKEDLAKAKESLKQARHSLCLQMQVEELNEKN

[3] = target: T2, EMRE fused at the C-terminus to a StrepII-HA-His6 tag (EMRE bait) (UniProt Q9H4I9)
T2 sequence: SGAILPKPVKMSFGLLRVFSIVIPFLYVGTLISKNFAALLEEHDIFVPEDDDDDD

[4] = target: T1, MCUB fused at the C-terminus to a StrepII-HA-His6 tag (MCUB bait); remark: listed apart in the source
[5] = target: MCU fused at the C-terminus to a StrepII-HA-His6 tag (MCU bait) (UniProt Q8NE86); remark: listed apart in the source
[6] = target: T3, MCUB fused at the C-terminus to a StrepII-HA-His6 tag (MCUB bait), Q9NWR8; settings: remark: other sources report otherwise
T3 chain: T1 sequence

Question: Which binding [1] does the source give for “J subunit of the ATP synthase complex (ATP5MPL) (from UniProt P56378 1-58)” here?
Answer: Its binding is “binds”.

Question: For “MICU1 (Mitochondrial Calcium Uptake 1), endogenous (from UniProt Q9BPX6 34-476)”, which binding [2] is on record?
Answer: Its binding is “binds”.

Question: With “MCU (Mitochondrial Calcium Uniporter), endogenous (from UniProt Q8NE86 51-351)” as the molecule, how does the binding [2] read?
Answer: The binding was “binds”.

B1: EF-hand domain-containing protein D1 (EFHD1), endogenous (protein, UniProt Q9BUP0 1-239)
chain: MASEELACKLERRLRREEAEESGPQLAPLGAPAPEPKPEPEPPARAPTASADAELSAQLSRRLDINEGAARPRRCRVFNPYTEFPEFSRRLIKDLESMFKLYDAGRDGFIDLMELKLMMEKLGAPQTHLGLKSMIKEVDEDFDGKLSFREFLLIFHKAAAGELQEDSGLMALAKLSEIDVALEGVKGAKNFFEAKVQALSSASKFEAELKAEQDERKREEEERRLRQAAFQKLKANFNT
Question: Which results are given for B1?
Answer: binding [3]: binds; binding [4]: binds

B2: TMEM70 (protein, UniProt Q9BUB7 82-260)
chain: LNTPSDKSEDGRLIYTGNMARAVFGVKCFSYSTSLIGLTFLPYIFTQNNAISESVPLPIQIIFYGIMGSFTVITPVLLHFITKGYVIRLYHEATTDTYKAITYNAMLAETSTVFHQNDVKIPDAKHVFTTFYAKTKSLLVNPVLFPNREDYIHLMGYDKEEFILYMEETSEEKRHKDDK
Question: Which binding [5] does the source give for B2 here?
Answer: Its binding is “binds”.

B3: SLC25A25 (protein, UniProt Q6KCM7 1-469)
chain: MLCLCLYVPVIGEAQTEFQYFESKGLPAELKSIFKLSVFIPSQEFSTYRQWKQKIVQAGDKDLDGQLDFEEFVHYLQDHEKKLRLVFKSLDKKNDGRIDAQEIMQSLRDLGVKISEQQAEKILKSMDKNGTMTIDWNEWRDYHLLHPVENIPEIILYWKHSTIFDVGENLTVPDEFTVEERQTGMWWRHLVAGGGAGAVSRTCTAPLDRLKVLMQVHASRSNNMGIVGGFTQMIREGGARSLWRGNGINVLKIAPESAIKFMAYEQIKRLVGSDQETLRIHERLVAGSLAGAIAQSSIYPMEVLKTRMALRKTGQYSGMLDCARRILAREGVAAFYKGYVPNMLGIIPYAGIDLAVYETLKNAWLQHYAVNSADPGVFVLLACGTMSSTCGQLASYPLALVRTRMQAQASIEGAPEVTMSSLFKHILRTEGAFGLYRGLAPNFMKVIPAVSISYVVYENLKITLGVQSR
Question: For B3, which binding [3] is on record?
Answer: The binding was “binds”.

Question: And the binding [5]?
Answer: Its binding is “binds”.

B4: MICU2, endogenous, Q8IYU8 23-434 (protein)
chain: AVSRQAVRSPGPLAAAVAGAALAGAGAAWHHSRVSVAARDGSFTVSAQKNVEHGIIYIGKPSLRKQRFMQFSSLEHEGEYYMTPRDFLFSVMFEQMERKTSVKKLTKKDIEDTLSGIQTAGCGSTFFRDLGDKGLISYTEYLFLLTILTKPHSGFHVAFKMLDTDGNEMIEKREFFKLQKIISKQDDLMTVKTNETGYQEAIVKEPEINTTLQMRFFGKRGQRKLHYKEFRRFMENLQTEIQEMEFLQFSKGLSFMRKEDFAEWLLFFTNTENKDIYWKNVREKLSAGESISLDEFKSFCHFTTHLEDFAIAMQMFSLAHRPVRLAEFKRAVKVATGQELSNNILDTVFKIFDLDGDECLSHEEFLGVLKNRMHRGLWVPQHQSIQEYWKCVKKESIKGVKEVWKQAGKGLF
Question: How did the binding [6] turn out when B4 was run?
Answer: The binding was “binds”.
